These results are taken from patent US20040053830A1.

Assay [1] concerns the target T1, sorcin protein (UniProt P30626).
T1 sequence (looked up): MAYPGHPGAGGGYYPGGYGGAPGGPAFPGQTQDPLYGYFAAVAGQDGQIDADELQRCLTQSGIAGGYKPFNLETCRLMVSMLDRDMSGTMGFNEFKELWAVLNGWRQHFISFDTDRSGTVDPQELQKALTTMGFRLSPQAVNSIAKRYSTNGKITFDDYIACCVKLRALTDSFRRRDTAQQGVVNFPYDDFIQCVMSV
In words: yeast two-hybrid, BCMP84 as bait.

The target in assay [2] is T2, Nucleobindin 1 (UniProt Q02818).
T2 sequence (looked up): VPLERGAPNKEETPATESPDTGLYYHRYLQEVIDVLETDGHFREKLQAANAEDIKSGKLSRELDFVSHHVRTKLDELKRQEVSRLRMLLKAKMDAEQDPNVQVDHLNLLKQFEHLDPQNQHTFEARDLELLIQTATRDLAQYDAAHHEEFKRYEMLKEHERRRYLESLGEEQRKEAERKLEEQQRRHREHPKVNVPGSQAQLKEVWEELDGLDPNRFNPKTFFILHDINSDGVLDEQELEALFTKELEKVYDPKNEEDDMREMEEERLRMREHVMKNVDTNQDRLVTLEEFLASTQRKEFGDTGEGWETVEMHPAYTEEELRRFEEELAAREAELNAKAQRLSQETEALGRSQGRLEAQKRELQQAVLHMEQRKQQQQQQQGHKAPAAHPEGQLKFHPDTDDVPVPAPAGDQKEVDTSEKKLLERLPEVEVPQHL
The assay is described as follows: yeast two-hybrid, BCMP84 as bait.

No constants are given. Whether binding was seen depends on the method and setting. Some entries that bind do so weakly or less than the wild type.

B1: BCMP84 bait (yeast two-hybrid) (protein)
chain: MGQCRSANAEDAQEFSDVERAIETLIKNFHQYSVEGGKETLTPSELRDLVTQQLPHLMPSNCGLEEKIANLGSCNNSKLEFGSFWELIGEAAKSVKLERPVRGH
For the molecule B1, the binding entry in assay [1] and in assay [2] was “binds” each time.
